# Like-named read-outs stand apart in the source and are kept apart here. At least one compound was matched to its structure with a doubt left.
# The chains behind the UniProt entries cited, without tags or fusion partners. Residues count along the entry.
# UniProt P35968, 20-1356, species assumed: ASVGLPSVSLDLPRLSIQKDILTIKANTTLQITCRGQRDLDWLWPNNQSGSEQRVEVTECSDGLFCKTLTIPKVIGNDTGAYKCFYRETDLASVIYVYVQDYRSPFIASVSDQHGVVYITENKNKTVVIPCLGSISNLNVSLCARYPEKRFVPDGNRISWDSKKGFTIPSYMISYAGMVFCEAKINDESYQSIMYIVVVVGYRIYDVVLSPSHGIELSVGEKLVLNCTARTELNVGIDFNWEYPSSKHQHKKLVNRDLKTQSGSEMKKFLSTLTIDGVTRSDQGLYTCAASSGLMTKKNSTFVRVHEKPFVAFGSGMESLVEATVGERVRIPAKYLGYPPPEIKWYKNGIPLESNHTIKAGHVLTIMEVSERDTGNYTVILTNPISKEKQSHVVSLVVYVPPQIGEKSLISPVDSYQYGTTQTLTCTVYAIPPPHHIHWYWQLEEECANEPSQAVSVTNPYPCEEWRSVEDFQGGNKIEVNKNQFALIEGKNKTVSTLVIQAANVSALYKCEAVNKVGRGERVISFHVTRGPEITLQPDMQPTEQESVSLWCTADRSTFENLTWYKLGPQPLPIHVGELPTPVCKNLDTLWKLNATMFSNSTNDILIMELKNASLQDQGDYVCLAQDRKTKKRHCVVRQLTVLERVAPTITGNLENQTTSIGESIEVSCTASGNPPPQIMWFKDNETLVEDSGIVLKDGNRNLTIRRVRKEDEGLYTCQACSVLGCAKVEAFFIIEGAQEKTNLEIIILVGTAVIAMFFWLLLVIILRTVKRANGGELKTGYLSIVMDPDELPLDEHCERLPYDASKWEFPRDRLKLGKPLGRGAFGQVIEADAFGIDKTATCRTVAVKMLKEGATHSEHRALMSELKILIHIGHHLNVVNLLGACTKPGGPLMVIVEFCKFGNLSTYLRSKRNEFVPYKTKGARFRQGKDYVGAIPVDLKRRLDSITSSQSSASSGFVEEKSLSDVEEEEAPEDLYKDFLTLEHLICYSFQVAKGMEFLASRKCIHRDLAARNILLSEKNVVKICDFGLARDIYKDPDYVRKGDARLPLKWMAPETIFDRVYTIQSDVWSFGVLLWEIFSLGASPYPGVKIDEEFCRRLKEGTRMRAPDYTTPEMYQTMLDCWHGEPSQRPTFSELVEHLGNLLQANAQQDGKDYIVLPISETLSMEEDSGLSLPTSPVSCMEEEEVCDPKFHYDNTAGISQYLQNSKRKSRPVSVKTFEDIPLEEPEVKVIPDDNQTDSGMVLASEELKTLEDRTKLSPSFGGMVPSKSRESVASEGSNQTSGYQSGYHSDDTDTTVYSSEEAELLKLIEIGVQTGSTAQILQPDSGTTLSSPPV
# UniProt P17948, 27-1338: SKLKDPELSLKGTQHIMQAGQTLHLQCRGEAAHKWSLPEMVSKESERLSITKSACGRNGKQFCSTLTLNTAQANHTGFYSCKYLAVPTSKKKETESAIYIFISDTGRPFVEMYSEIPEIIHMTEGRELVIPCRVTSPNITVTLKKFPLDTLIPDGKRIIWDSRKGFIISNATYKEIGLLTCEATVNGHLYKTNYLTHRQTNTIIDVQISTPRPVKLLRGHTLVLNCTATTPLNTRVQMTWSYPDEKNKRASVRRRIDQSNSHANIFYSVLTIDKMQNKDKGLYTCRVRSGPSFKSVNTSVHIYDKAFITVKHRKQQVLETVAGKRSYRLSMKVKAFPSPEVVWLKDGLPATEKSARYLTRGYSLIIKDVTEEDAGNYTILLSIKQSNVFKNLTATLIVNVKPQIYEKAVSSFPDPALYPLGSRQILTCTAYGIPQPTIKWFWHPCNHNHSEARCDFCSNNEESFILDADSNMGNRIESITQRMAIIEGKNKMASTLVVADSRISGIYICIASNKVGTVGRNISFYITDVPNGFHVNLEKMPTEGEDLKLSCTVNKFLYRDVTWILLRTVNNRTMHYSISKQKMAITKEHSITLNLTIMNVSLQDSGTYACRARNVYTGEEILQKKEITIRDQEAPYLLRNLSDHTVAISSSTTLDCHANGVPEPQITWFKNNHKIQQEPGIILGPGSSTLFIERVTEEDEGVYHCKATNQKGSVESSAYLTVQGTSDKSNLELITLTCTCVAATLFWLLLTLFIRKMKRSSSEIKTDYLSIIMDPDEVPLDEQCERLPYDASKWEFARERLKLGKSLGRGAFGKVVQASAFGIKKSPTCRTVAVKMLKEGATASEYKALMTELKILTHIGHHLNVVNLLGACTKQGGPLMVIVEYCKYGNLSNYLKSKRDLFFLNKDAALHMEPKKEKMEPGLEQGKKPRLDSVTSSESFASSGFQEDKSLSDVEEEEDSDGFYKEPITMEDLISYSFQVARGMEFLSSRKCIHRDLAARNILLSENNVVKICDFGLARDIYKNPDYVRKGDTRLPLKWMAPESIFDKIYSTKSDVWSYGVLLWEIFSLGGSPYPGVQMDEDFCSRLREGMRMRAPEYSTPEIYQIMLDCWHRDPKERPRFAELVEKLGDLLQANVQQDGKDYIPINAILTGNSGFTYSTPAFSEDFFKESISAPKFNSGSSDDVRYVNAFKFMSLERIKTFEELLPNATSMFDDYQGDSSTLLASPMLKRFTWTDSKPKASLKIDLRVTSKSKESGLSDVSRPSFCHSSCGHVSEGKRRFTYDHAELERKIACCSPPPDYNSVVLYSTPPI
# UniProt P17948, 27-758 limits assumed: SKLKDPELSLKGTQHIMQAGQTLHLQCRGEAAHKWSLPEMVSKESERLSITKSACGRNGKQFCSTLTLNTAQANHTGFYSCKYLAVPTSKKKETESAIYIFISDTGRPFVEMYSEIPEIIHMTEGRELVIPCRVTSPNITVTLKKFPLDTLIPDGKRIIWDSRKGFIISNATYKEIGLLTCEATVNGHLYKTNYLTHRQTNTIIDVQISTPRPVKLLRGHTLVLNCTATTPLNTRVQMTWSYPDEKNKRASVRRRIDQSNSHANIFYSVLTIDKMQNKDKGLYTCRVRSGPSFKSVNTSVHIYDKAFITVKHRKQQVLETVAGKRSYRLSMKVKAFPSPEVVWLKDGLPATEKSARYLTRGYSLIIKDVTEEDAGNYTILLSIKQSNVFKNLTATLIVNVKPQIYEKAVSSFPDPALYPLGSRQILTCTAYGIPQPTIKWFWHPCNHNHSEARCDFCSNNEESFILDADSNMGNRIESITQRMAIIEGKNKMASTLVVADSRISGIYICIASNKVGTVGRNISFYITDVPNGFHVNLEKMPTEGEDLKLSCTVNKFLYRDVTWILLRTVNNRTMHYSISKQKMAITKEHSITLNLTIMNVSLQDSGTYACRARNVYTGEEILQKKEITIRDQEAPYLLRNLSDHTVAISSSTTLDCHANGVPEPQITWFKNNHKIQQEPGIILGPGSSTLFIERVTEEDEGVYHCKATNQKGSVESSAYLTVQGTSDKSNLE
# Tests used:
# [1] = biological target: VEGFR-2 (Homo sapiens, UniProt P35968); conditions: Ponticelli et al.; cited from earlier work
# [2] = biological target: T1, VEGFR1 (Homo sapiens, UniProt P17948); conditions: Ponticelli et al., cited from earlier work
# [3] = system: choroidal neovascularization; conditions: administered intravitreally; Cicatiello et al. 2015; cited from earlier work
# [4] = system: pro-angiogenic activity of PIGF and VEGF-A; conditions: interfering with pro-angiogenic activity of PIGF and VEGF-A; cited from earlier work
# [5] = system: laser-induced choroidal neovascularization; test: Laser-induced choroidal neovascularization, oral administration (gavage); assay type: in vivo, C57BI6/J mice; conditions: oral (gavage) 50 mg/Kg twice a day for seven days
# [6] = system: laser-induced choroidal neovascularization; test: Laser-induced choroidal neovascularization, intravitreal injection; assay type: in vivo, C57BI6/J mice; conditions: for inhibition (reduction) of choroidal neovascularization vs vehicle (DMSO) / inhibition of choroidal neovascularization vs PC / neovascularization inhibition vs PC, printed as negative change / neovascularization inhibition vs the vehicle, printed as negative change: day 7, CNV volume
# [7] = biological target: T2, VEGF-A/VEGFR-1 interaction (Homo sapiens, UniProt P17948); test: ELISA competition assay of VEGF-A binding to VEGFR-1; conditions: read-out: IC50 for VEGF-A/VEGFR-1 inhibition
# T2 construct: the form consisting of the seven extracellular domains of the receptor fused to the Fc domain of human IgG; purchased R&D Systems 321-FL (receptor); 293-VE (VEGF-A)
# Procedure: The binding reaction was conducted for one hour at 37° C., followed by one hour at room temperature. At the end of the binding and/or competition step, anti-human-PIGF biotinylated polyclonal antibodies (R&D Systems, cat No. BAF264) or anti-human-VEGF-A (R&D Systems, cat No. BAF293) were added to the wells at the concentration of 300 ng/ml in PBET. After one hour of incubation at 37° C. followed by one hour at room temperature, an HRP-conjugated avidin-streptavidin system (Vectastain elite ABC kit) and a substrate for HRP (o-phenylenediamine-Sigma, cat No. P1526) were added to the wells. Quantization was performed by determining the absorbance at 490 nm. Any inhibitory activity of the peptides was expressed in terms of % of residual binding, comparing the data obtained for the binding of PIGF or VEGF-A to the receptors in the presence of the tetrameric peptides with those in the absence of the same. iVR1 represented the positive control of the inhibition of the PIGF/VEGFR-1 or VEGF-A/VEGFR-1 interaction.
# [8] = system: tumor growth; conditions: administered intraperitoneally; cited from earlier work
# [9] = biological target: T3, PIGF/VEGFR-1 interaction (Homo sapiens, UniProt P17948); test: ELISA competition assay of PIGF binding to VEGFR-1; conditions: read-out: IC50 of inhibition of the interaction of PIGF with VEGFR-1
# T3 construct: the form consisting of the seven extracellular domains of the receptor fused to the Fc domain of human IgG; purchased R&D Systems 321-FL (receptor); 264-PG (PlGF)
# [10] = system: VEGF-A-sFlt1 bond; conditions: cited from earlier work
# [11] = biological target: T1, VEGFR1; test: PIGF-induced phosphorylation of VEGFR-1 in 293-VEGFR-1 cells (western blotting); assay type: cell-based; design: expressed in transfected cells; conditions: peptide 5 μM (5000 nM), PIGF 20 ng/ml
# [12] = 10 μg single intravitreal injection
# [13] = 50 μg single intravitreal injection
SMILES,binding of VEGFR-2 [1],"IC50 ([2]; read-out: IC50 of inhibiting in vitro the interaction of PIGF, VEGF-A and VEGF-B with VEGFR1)",IC50 ([2]; read-out: affinity towards VEGFR1 (expressed as IC50)),effect on choroidal neovascularization [3],anti-angiogenic activity in vitro [4],"inhibition of neovascularization compared to the vehicle, printed as negative change [5]",reduction (inhibition) of choroidal neovascularization compared to the vehicle [5],"inhibition (reduction) of choroidal neovascularization vs vehicle (DMSO) [6, 12]","inhibition of choroidal neovascularization vs PC [6, 12]","inhibition (reduction) of choroidal neovascularization vs vehicle (DMSO) [6, 13]","neovascularization inhibition vs PC, printed as negative change [6, 13]","neovascularization inhibition vs the vehicle, printed as negative change [6, 13]",IC50 [7],"effect on tumor growth, angiogenesis, arteriogenesis and metastatization [8]",IC50 [9],displacement of the VEGF-A-sFlt1 bond in the cornea [10],inhibition of PIGF-induced phosphorylation of VEGFR-1 [11],further reduction of neovascularization compared with iVR1 ([6]; 10 μg intravitreal)
"NC(=O)CNC(=O)C(CCCCNC(=O)C(CCCCNC(=O)[C@H](CC1CCCCC1)NC(=O)C(CSCc1ccccc1)NC(=O)[C@H](N)CCC(=O)O)NC(=O)[C@H](CC1CCCCC1)NC(=O)C(CSCc1ccccc1)NC(=O)[C@H](N)CCC(=O)O)NC(=O)C(CCCCNC(=O)[C@H](CC1CCCCC1)NC(=O)C(CSCc1ccccc1)NC(=O)[C@H](N)CCC(=O)O)NC(=O)[C@H](CC1CCCCC1)NC(=O)C(CSCc1ccccc1)NC(=O)[C@H](N)CCC(=O)O (stereo partly drawn) [iVR1, reference compound]",not capable of binding VEGFR-2,~10 µM,≥ 10 µM,reduces choroidal neovascularization,has shown anti-angiogenic activity in vitro,−49.7%,49.7%,37.8%,39.3%,73.9%,−76.5%,−73.9%,~10 µM,"reduces tumor growth, angiogenesis and arteriogenesis as well as metastatization",~10 µM,is able to displace the VEGF-A-sFlt1 bond in the cornea,,
NC(=O)[C@@H](CS)NC(=O)C(CCCCNC(=O)C(CCCCNC(=O)[C@H](CC1CCCCC1)NC(=O)C(CSCc1ccccc1)NC(=O)[C@H](N)CCC(=O)O)NC(=O)[C@H](CC1CCCCC1)NC(=O)C(CSCc1ccccc1)NC(=O)[C@H](N)CCC(=O)O)NC(=O)C(CCCCNC(=O)[C@H](CC1CCCCC1)NC(=O)C(CSCc1ccccc1)NC(=O)[C@H](N)CCC(=O)O)NC(=O)[C@H](CC1CCCCC1)NC(=O)C(CSCc1ccccc1)NC(=O)[C@H](N)CCC(=O)O (stereo partly drawn) [iVR1-Cys],,,,,,−45.9%,45.9%,48.9%,51.0%,75.9%,−74.6%,−75.9%,~1 µM,,< 1 µM,,powerful inhibition of phosphorylation of the receptor,19.3%
